From article PMC12713088, “Arabidopsis TRB Proteins Form Two Closely Related Complexes to Mediate H3K4me3 Demethylation and Transcriptional Repression” (Advanced Science, 2025)
These are yes or no findings as the source states them, for the method shown. In cells and extracts the contact can be indirect. A yes stands for co-enrichment or nearness to the bait. Other partners may have been found.

Amino acid sequences for entries named in this document (tags omitted). A change or cut given only in a name is not applied to a line headed by its entry.
UniProt O81784: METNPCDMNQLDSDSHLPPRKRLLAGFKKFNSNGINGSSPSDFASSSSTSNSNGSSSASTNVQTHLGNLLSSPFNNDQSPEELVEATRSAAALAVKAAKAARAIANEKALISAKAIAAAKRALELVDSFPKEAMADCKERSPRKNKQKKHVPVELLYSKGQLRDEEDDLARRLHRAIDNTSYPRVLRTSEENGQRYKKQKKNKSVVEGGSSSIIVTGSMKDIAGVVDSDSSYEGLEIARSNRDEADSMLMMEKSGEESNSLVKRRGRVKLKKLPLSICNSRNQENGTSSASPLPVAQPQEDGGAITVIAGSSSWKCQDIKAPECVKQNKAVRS
UniProt Q9SHL4: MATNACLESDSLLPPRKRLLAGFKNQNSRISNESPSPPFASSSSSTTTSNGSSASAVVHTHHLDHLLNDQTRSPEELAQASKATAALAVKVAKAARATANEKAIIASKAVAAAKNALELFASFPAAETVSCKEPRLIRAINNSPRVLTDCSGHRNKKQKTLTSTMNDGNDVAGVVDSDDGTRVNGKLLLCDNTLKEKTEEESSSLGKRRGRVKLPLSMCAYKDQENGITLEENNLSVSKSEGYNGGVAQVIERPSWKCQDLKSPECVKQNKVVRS
UniProt Q9LRN9: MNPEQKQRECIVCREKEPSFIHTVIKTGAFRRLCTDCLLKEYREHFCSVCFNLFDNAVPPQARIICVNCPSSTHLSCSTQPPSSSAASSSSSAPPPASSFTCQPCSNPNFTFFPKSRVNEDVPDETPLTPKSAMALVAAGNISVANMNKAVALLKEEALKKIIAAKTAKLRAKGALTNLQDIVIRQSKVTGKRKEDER
UniProt Q9FKY2: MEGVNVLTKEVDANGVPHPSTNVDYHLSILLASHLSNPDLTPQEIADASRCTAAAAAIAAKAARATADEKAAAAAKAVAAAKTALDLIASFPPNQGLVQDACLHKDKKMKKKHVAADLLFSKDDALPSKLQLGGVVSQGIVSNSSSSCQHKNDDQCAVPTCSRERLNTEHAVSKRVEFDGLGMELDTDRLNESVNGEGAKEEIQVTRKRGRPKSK

Experiments:
Assay in all cases: affinity purification with mass spectrometry; Flag-tagged bait from transgenic Arabidopsis (12-day-old seedlings and flower tissues) on anti-FLAG M2 agarose, 4 °C overnight; 50 mM Tris-HCl pH 7.5, 150 mM NaCl, 5 mM MgCl2, 10% glycerol, 0.1% NP-40; eluted with 3xFLAG peptide
[1] = target: T1, TELOMERE REPEAT BINDING PROTEIN 3 (TRB3), in Arabidopsis (AP-MS) (Arabidopsis thaliana) (UniProt Q9M2X3)
T1 sequence: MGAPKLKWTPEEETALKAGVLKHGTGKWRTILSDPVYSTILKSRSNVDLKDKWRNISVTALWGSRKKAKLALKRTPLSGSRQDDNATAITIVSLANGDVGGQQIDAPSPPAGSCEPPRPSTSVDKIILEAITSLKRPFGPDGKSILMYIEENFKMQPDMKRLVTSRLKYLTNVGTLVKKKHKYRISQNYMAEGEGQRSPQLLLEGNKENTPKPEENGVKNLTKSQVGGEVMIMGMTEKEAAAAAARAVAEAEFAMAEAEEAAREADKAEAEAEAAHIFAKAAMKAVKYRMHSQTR

[2] = target: T2, TELOMERE REPEAT BINDING PROTEIN 2 (TRB2), in Arabidopsis (AP-MS) (Arabidopsis thaliana) (UniProt Q9FJW5)
T2 sequence: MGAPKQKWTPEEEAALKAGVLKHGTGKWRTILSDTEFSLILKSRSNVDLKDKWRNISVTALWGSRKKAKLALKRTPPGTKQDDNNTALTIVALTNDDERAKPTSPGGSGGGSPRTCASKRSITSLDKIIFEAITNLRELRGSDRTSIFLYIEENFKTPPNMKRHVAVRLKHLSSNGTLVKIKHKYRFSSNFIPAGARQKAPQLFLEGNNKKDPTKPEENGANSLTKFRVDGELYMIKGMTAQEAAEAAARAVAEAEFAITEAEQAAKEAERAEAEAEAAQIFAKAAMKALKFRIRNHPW

[3] = target: T3, TELOMERE REPEAT BINDING PROTEIN 1 (TRB1), in Arabidopsis (AP-MS) (Arabidopsis thaliana) (UniProt Q8VWK4)
T3 sequence: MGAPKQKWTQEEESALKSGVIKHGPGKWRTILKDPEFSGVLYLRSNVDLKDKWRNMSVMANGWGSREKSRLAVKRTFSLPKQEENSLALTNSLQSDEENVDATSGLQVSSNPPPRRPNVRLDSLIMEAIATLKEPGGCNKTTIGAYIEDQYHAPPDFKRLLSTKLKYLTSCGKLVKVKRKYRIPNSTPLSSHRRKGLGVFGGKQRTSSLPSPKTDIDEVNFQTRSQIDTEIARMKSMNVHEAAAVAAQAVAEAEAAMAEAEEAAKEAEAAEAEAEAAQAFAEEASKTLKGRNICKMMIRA

[4] = target: HELIX-TURN-HELIX PROTEIN 2 (HTH2), in Arabidopsis (AP-MS) (Arabidopsis thaliana) (UniProt O81784)
[5] = target: HELIX-TURN-HELIX PROTEIN 1 (HTH1), in Arabidopsis (AP-MS) (Arabidopsis thaliana) (UniProt Q9SHL4)
[6] = target: ZINC-FINGER-DOMAIN PROTEIN 2 (ZDP2), in Arabidopsis (AP-MS) (Arabidopsis thaliana) (UniProt Q9LRN9)
[7] = target: HELIX-TURN-HELIX PROTEIN 3 (HTH3), in Arabidopsis (AP-MS) (Arabidopsis thaliana) (UniProt Q9FKY2)

Measured: binding

HELIX-TURN-HELIX PROTEIN 3 (HTH3), in Arabidopsis (AP-MS) (from UniProt Q9FKY2)
binds: [1] | [2] | [3]

HELIX-TURN-HELIX PROTEIN 1 (HTH1), in Arabidopsis (AP-MS) (from UniProt Q9SHL4)
binds: [1] | [2] | [3]

ZINC-FINGER-DOMAIN PROTEIN 2 (ZDP2), in Arabidopsis (AP-MS) (from UniProt Q9LRN9)
binds: [1] | [2] | [3]

HELIX-TURN-HELIX PROTEIN 2 (HTH2), in Arabidopsis (AP-MS) (from UniProt O81784)
binds: [1] | [2] | [3]

B1: TELOMERE REPEAT BINDING PROTEIN 3 (TRB3), in Arabidopsis (AP-MS) (protein, UniProt Q9M2X3 1-295)
chain: MGAPKLKWTPEEETALKAGVLKHGTGKWRTILSDPVYSTILKSRSNVDLKDKWRNISVTALWGSRKKAKLALKRTPLSGSRQDDNATAITIVSLANGDVGGQQIDAPSPPAGSCEPPRPSTSVDKIILEAITSLKRPFGPDGKSILMYIEENFKMQPDMKRLVTSRLKYLTNVGTLVKKKHKYRISQNYMAEGEGQRSPQLLLEGNKENTPKPEENGVKNLTKSQVGGEVMIMGMTEKEAAAAAARAVAEAEFAMAEAEEAAREADKAEAEAEAAHIFAKAAMKAVKYRMHSQTR
binds: [4] | [5] | [6] | [7]

B2: TELOMERE REPEAT BINDING PROTEIN 1 (TRB1), in Arabidopsis (AP-MS) (protein, UniProt Q8VWK4 1-300)
chain: MGAPKQKWTQEEESALKSGVIKHGPGKWRTILKDPEFSGVLYLRSNVDLKDKWRNMSVMANGWGSREKSRLAVKRTFSLPKQEENSLALTNSLQSDEENVDATSGLQVSSNPPPRRPNVRLDSLIMEAIATLKEPGGCNKTTIGAYIEDQYHAPPDFKRLLSTKLKYLTSCGKLVKVKRKYRIPNSTPLSSHRRKGLGVFGGKQRTSSLPSPKTDIDEVNFQTRSQIDTEIARMKSMNVHEAAAVAAQAVAEAEAAMAEAEEAAKEAEAAEAEAEAAQAFAEEASKTLKGRNICKMMIRA
binds: [4] | [5] | [6] | [7]

B3: TELOMERE REPEAT BINDING PROTEIN 2 (TRB2), in Arabidopsis (AP-MS) (protein, UniProt Q9FJW5 1-299)
chain: MGAPKQKWTPEEEAALKAGVLKHGTGKWRTILSDTEFSLILKSRSNVDLKDKWRNISVTALWGSRKKAKLALKRTPPGTKQDDNNTALTIVALTNDDERAKPTSPGGSGGGSPRTCASKRSITSLDKIIFEAITNLRELRGSDRTSIFLYIEENFKTPPNMKRHVAVRLKHLSSNGTLVKIKHKYRFSSNFIPAGARQKAPQLFLEGNNKKDPTKPEENGANSLTKFRVDGELYMIKGMTAQEAAEAAARAVAEAEFAITEAEQAAKEAERAEAEAEAAQIFAKAAMKALKFRIRNHPW
binds: [4] | [5] | [6] | [7]
